The values that follow come from the supplement of paper PMC3334620.

The full ranking holds about 33,000 sequences; the median of “E-score (-0.5 to 0.5)” is about -8e-05, and the highest 2% start at about 0.23. Some of the results follow.

For the test, the target named is T1, Nrg2 (UniProt P38082).
T1 sequence: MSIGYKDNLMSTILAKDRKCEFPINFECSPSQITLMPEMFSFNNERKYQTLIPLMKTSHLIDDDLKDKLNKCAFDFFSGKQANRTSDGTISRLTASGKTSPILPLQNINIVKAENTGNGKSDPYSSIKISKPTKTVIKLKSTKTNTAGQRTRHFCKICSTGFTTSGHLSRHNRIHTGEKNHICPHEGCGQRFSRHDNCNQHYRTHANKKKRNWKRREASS
Put plainly: PBM E-score (8-mer binding enrichment) (E-score (-0.5 to 0.5)); higher = stronger / more preferred TF binding. Particulars: protein concentration: 100 nM; construct: GST-full length. In outline:
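The E-score, a modified Wilcoxon-Mann-Whitney statistic, was computed by the Universal PBM Analysis Suite for every ungapped eight-base word pooled with its reverse complement. Scans behind it were normalised with masliner after bound GST-tagged yeast transcription factors were detected with fluorescent anti-GST. The proteins, at about 100-200 nM, had been applied to universal all-10-mer Agilent arrays made double-stranded by primer extension.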
In the case of CTGTTTAC, the “PBM E-score” value is 0.0618.
Take CTCCTAAC: the “PBM E-score” value is -0.0925.
Take ACCGAGAA: the “PBM E-score” value amounted to 0.0685.
Next, AATTCATA: 0.0927; CCAGTTAA: 0.193.
For CCATAGAC, the “PBM E-score” value was -0.106.
As for GTTATCCA, the “PBM E-score” value came out at 0.114.
As for AACGTAGG, the “PBM E-score” value is -0.148.
For the sequence AACACGTA, the “PBM E-score” value was -0.144.
Turning to GACCGTCC, the “PBM E-score” value is -0.165.
Consider CAAAGCTC, for which the “PBM E-score” value is -0.198.
Take GAGTAGAC: the “PBM E-score” value was found to be 0.00641.
Regarding CCAAACAG, the “PBM E-score” value was found to be 0.0678.
As to AGTGACAT, the “PBM E-score” value is 0.0819.
For GCCAGGAA, the “PBM E-score” value turned out to be 0.0218.
Under GAGCGCTA stands 0.0609; under GATGAGAC, 0.197; under CTTACTAA, 0.0213.
Next, CGCGAAAG: 0.122.
With CGGGTCAG, the “PBM E-score” value amounted to 0.023.
As for GCTCACCC, the “PBM E-score” value was -0.161.
Regarding CTGCCTTC, the “PBM E-score” value is -0.198.
Turning to AAGCCCAT, the “PBM E-score” value is -0.0683.
On to AACATCAT, for which the “PBM E-score” value was 0.0625.
Turning to AAGGCCAA, the “PBM E-score” value is -0.201.
Under AGACCTAT stands -0.0252; under CCTATTGA, 0.0806; under CCATGGCC, -0.0512.
Under CATCCAGC stands -0.0323.
Next, GGCGGAAC: 0.0586.
In the case of AGGCGTCC, the “PBM E-score” value is -0.0544.
Turning to AACAAAAG, the “PBM E-score” value was -0.0749.
GAGCTAGA: the “PBM E-score” value was -0.0487.
Take CCCTGAAC: the “PBM E-score” value turned out to be 0.282.
Turning to GACTCTTA, the “PBM E-score” value was 0.0313.
Next, CTCTGAGA: 0.0054; ACAATCAT: -0.062; AGTGAATG: 0.172.
Turning to ATGTCTTG, the “PBM E-score” value was -0.162.
Next, AAGCGAAG: 0.00012; TACGATCA: 0.075; GCGCAAGA: 0.102.
Take ATAGCGCA: the “PBM E-score” value stood at 0.0651.
With CGTGTATA, the “PBM E-score” value turned out to be 0.121.
Take GACATAGA: the “PBM E-score” value was -0.0743.
Consider TACCGCCA, for which the “PBM E-score” value worked out at 0.0249.
Under CGTATGCC stands -0.176.
Take CTCAAAAG: the “PBM E-score” value came out at 0.0696.
As to TCCATTAA, the “PBM E-score” value worked out at 0.00365.
Take GCGCCAGA: the “PBM E-score” value amounted to 0.00891.
Regarding TTAGCAAA, the “PBM E-score” value is -0.0742.
On to GTATCCAC, for which the “PBM E-score” value is 0.04.
AAAGTGCG: the “PBM E-score” value came out at 0.0872.
For ATTCATAG, the “PBM E-score” value worked out at 0.155.
Regarding CCGGAGCA, the “PBM E-score” value is -0.223.
Next, ACCGAACA: 0.0615; CAATTGGC: 0.133; GCTTGTAC: 0.138.
For the sequence AGCTCTGC, the “PBM E-score” value was -0.116.
As to TGTACAAA, the “PBM E-score” value was found to be 0.0674.
Take CTGTATAA: the “PBM E-score” value was -0.00975.
For AGAGTTAG, the “PBM E-score” value is -0.0429.
Consider AATGTAGA, for which the “PBM E-score” value was -0.0128.
For AGCTTGCG, the “PBM E-score” value was -0.168.
Turning to AAATTAAT, the “PBM E-score” value is 0.00279.
As for TGACGCCA, the “PBM E-score” value is -0.129.
Take CATATGGA: the “PBM E-score” value is 0.105.
Take GCCTTAGA: the “PBM E-score” value was -0.187.
Turning to CCTACACC, the “PBM E-score” value is -0.103.
Turning to GAGCCGAC, the “PBM E-score” value was -0.343.
With CGCCTATA, the “PBM E-score” value was -0.127.
Regarding ATTGCCCA, the “PBM E-score” value came out at 0.0319.
Next, CTGAGAAG: -0.0101; ACTAACCC: 0.114; GACGGAGA: -0.0952.
As to TCGTGTAA, the “PBM E-score” value amounted to 0.0362.
For AGTCATCG, the “PBM E-score” value is -0.07.
As to CTCCAGAG, the “PBM E-score” value was -0.0899.
Under GTGACATA stands 0.0599.
Consider AGGACTGG, for which the “PBM E-score” value was -0.176.
As to CCTCCTAG, the “PBM E-score” value worked out at 0.00177.
For the sequence GGGTGTAA, the “PBM E-score” value worked out at 0.0253.
For the sequence AATTCAAA, the “PBM E-score” value was 0.0169.
For ACCAAGGG, the “PBM E-score” value was found to be 0.141.
Regarding ATAGTCAA, the “PBM E-score” value was -0.00877.
For GGTCGCGA, the “PBM E-score” value is 0.242.
For the sequence AGGGTGCC, the “PBM E-score” value is -0.00542.
Next, ACGGACAT: 0.0308; AGCAGACA: -0.164; CACAAAGG: -0.00781.
Consider CCACAGCC, for which the “PBM E-score” value was -0.108.
Next, CCCAGTCC: -0.141; CCCACTGA: 0.0719; ATCACAAT: 0.128.
Next, CACGGAAA: 0.0406; GAGTCCGC: -0.235.
Next, TAGATGGA: -0.00164; GTAGAATA: 0.101; GGACGCAC: 0.137.
CTAGCAAC: the “PBM E-score” value worked out at 0.0101.
ACGTGACG: the “PBM E-score” value was -0.0649.
TCCACGCA: the “PBM E-score” value was -0.0452.
Under GTATCGGA stands -0.0682.
Take ACACGAAT: the “PBM E-score” value came out at 0.167.
Under CAGCTCGG stands -0.0886; under AACCTAAT, -0.115.
Next, AAGCCAGA: -0.12; CTGCCTGA: 0.148.
As to AATATGAA, the “PBM E-score” value was determined as 0.177.
